Test results published in patent US11653679B2, “High-purity steviol glycosides” (PureCircle Sdn Bhd, priority 2014, dated 2023).
Some compounds share one wording; it may come from a single statement.

Tested on: Isolase
Test: Stability of rebaudiosides in the presence of Isolase (Example 50)
Format: biochemical
Details: 1 mM, pH 4.5, 30° C., 24 h

Row | Structure (SMILES) | conversion of rebaudioside in the presence of Isolase
1 | C=C1C[C@@]23CC[C@H]4[C@@](C)(CCC[C@@]4(C)C(=O)O[C@@H]4O[C@H](CO)[C@@H](O)[C@H](O)[C@H]4O)[C@@H]2CC[C@]1(O[C@@H]1O[C@H](CO)[C@@H](O)[C@H](O[C@@H]2O[C@H](CO)[C@@H](O)[C@H](O)[C@H]2O)[C@H]1O[C@@H]1O[C@H](CO)[C@@H](O)[C@H](O)[C@H]1O)C3 [Rebaudioside A, reference compound] | no significant conversion
2 | C=C1C[C@@]23CC[C@H]4[C@@](C)(CCC[C@@]4(C)C(=O)O[C@@H]4O[C@H](CO)[C@@H](O)[C@H](O)[C@H]4O[C@@H]4O[C@H](CO)[C@@H](O)[C@H](O)[C@H]4O)[C@@H]2CC[C@]1(O[C@@H]1O[C@H](CO)[C@@H](O)[C@H](O[C@@H]2O[C@H](CO)[C@@H](O)[C@H](O)[C@H]2O)[C@H]1O[C@@H]1O[C@H](CO)[C@@H](O)[C@H](O)[C@H]1O)C3 [Rebaudioside D] | no significant conversion
3 | C=C1C[C@@]23CC[C@H]4[C@@](C)(CCC[C@@]4(C)C(=O)O[C@@H]4O[C@H](CO)[C@@H](O)[C@H](O[C@@H]5O[C@H](CO)[C@@H](O)[C@H](O)[C@H]5O)[C@H]4O[C@@H]4O[C@H](CO)[C@@H](O)[C@H](O)[C@H]4O)[C@@H]2CC[C@]1(O[C@@H]1O[C@H](CO)[C@@H](O)[C@H](O[C@@H]2O[C@H](CO)[C@@H](O)[C@H](O)[C@H]2O)[C@H]1O[C@@H]1O[C@H](CO)[C@@H](O)[C@H](O)[C@H]1O)C3 [reb M, Rebaudioside M] | no significant conversion
